Laboratory results published in PubChem BioAssay AID2417 (National Center for Advancing Translational Sciences (NCATS), 2010).
The whole screen tested about 140,000 compounds, of which about 4,300 (3.1%) were called active. The inconclusive results got no clear call from the source; some entries with a clear call stand among them for comparison.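 Rule for the calls: active = readout at or below -70, meaning at least 70% loss of cells showing the perinucleolar compartment, a nuclear body marking cancer cells; inconclusive = readout between -30 and a set limit; inactive = the rest.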

Assay: High Content Assay for Compounds that inhibit the Assembly of the Perinucleolar Compartment;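 note: plate controls were DMSO wells for no effect and camptothecin positive control wells for full effect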
Conditions: PC3M PTB-GFP, PNC prevalence imaging, 16 h; at 10 µM; active compounds read low
Summary of the method: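 PC3M cells stably expressing PTB-GFP, 750–1000 cells/well, treated 16 h at 37 °C with compound (23 nl of library stock), in duplicate. After paraformaldehyde fixation and Hoechst stain, imaged at 20x; PNC prevalence scored by image analysis.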
In the case of `Cc1cccc(NC(=S)N=Nc2c(O)n(CN3CCOCC3)c3ccccc23)c1C`, the activity change (PNC), negative = inhibition is reported as inactive: -24.4%. For `Cc1cccc(N(Cc2cc3ccccc3[nH]c2=O)S(=O)(=O)c2ccccc2)c1`, the activity change (PNC), negative = inhibition was inconclusive: -49.2%. For `CC(C)NC(=O)CN1C(=O)C(=O)c2ccccc21`, the activity change (PNC), negative = inhibition was inconclusive: -53.7%. With `Cc1ccc(/C=C/C(=O)c2nc3ccccc3[nH]2)cc1` the activity change (PNC), negative = inhibition was inactive: 3.15%. With `COC(=O)CSc1nc(-c2ccc(F)cc2)cc(C(F)(F)F)n1` the activity change (PNC), negative = inhibition was inconclusive: -30.4%. For `Cc1sc(NC(=O)c2ccco2)c(C(c2ccncc2)N2CCOCC2)c1C` (stereo not drawn), the activity change (PNC), negative = inhibition was inconclusive: -32.8%. For `NS(=O)(=O)c1cccc(NC(=O)Cn2cnc3ccccc3c2=O)c1`, the activity change (PNC), negative = inhibition was inconclusive: -63.3%. With `O=C(Nc1ccn(C2CC(OC(=O)c3ccccc3)C(CO)O2)c(=O)n1)c1ccccc1` (stereo not drawn) the activity change (PNC), negative = inhibition was inconclusive: -36.1%. In the case of `Cc1cc(C)cc(-n2c(SCC(=O)Nc3cccc(S(=O)(=O)NC4=NCCCCC4)c3)nc3ccccc3c2=O)c1`, the activity change (PNC), negative = inhibition is reported as inactive: 52%. With `c1ccc(-n2nnnc2SCc2cn3cccnc3n2)cc1` the activity change (PNC), negative = inhibition was inactive: -4.19%. In the case of `O=C(Nc1ccccc1F)c1ccc(Br)o1`, the activity change (PNC), negative = inhibition is reported as inconclusive: -68.6%. With `Nc1cc(=O)[nH]c(SCc2ccc(Cl)cc2)n1` the activity change (PNC), negative = inhibition was inconclusive: -52.3%. With `COc1ccc(C2NC(C(=O)O)CS2)cc1COCC(F)(F)F` (stereo not drawn) the activity change (PNC), negative = inhibition was inconclusive: -44.1%. For `Cc1cc(C(=O)COC(=O)c2ccc(O)cc2)c(C)n1CC1COc2ccccc2O1` (stereo not drawn), the activity change (PNC), negative = inhibition was active: -81.1%. In the case of `Cn1c(CN2CCN(C(=O)c3ccccc3Cl)CC2)nc2cc([N+](=O)[O-])ccc21`, the activity change (PNC), negative = inhibition is reported as inconclusive: -52.5%. In the case of `O=C(Nc1nccs1)C12CC3CC(C1)CC(C(=O)Nc1nccs1)(C3)C2`, the activity change (PNC), negative = inhibition is reported as active: -88.3%. In the case of `COc1ccc(/C=C\C(=O)Oc2cccc(/C=N/NC(=O)Cc3ccc(OC)c(OC)c3)c2)cc1`, the activity change (PNC), negative = inhibition is reported as inconclusive: -30.4%. With `CCN(C(=S)Nc1ccc(Oc2ccccc2)cc1)c1ccccc1` the activity change (PNC), negative = inhibition was inconclusive: -45%. For `COc1cc(CCC(=O)OCC(=O)Nc2ccccc2C(C)C)cc(OC)c1OC`, the activity change (PNC), negative = inhibition was active: -111%. In the case of `O=C(CC(c1ccccc1)c1ccccc1)Nc1ncn[nH]1`, the activity change (PNC), negative = inhibition is reported as inconclusive: -32.2%. With `O=C(NCCc1ccccc1)c1cc2sccc2n1Cc1ccccc1` the activity change (PNC), negative = inhibition was inactive: -3.85%. For `CCOC(=O)c1c(NC(=S)Nc2ccccc2C)sc2c1CCC2`, the activity change (PNC), negative = inhibition was inconclusive: -47.7%. In the case of `N/C(=N\OC(=O)CSc1ccccc1)c1cccc([N+](=O)[O-])c1`, the activity change (PNC), negative = inhibition is reported as inconclusive: -37.2%. With `COc1ccc(/C=C/C(=O)Nc2c(C)nn(C)c2C)cc1COc1ccc(Cl)cc1Br` the activity change (PNC), negative = inhibition was inconclusive: -46.8%. With `CCC(=O)N1CCc2cc(S(=O)(=O)NCCCOC)ccc21` the activity change (PNC), negative = inhibition was inactive: 25.4%. For `CCOC(=O)CSc1ccc(S(=O)(=O)N2CCC(C)CC2)cc1[N+](=O)[O-]`, the activity change (PNC), negative = inhibition was inconclusive: -53.3%. With `COc1cc(/C=N/O)cc(Br)c1OS(=O)(=O)c1ccc(C)cc1` the activity change (PNC), negative = inhibition was inconclusive: -57.8%. With `Cc1ccc2cc(CN(Cc3cccs3)Cc3nnnn3CC3CCCO3)c(=O)[nH]c2c1C` (stereo not drawn) the activity change (PNC), negative = inhibition was inactive: -13.7%. In the case of `Cc1cc(C)cc(N(CC(=O)N2CCOCC2)S(=O)(=O)c2ccccc2)c1`, the activity change (PNC), negative = inhibition is reported as inconclusive: -31.6%. For `O=C(NCc1ccc(-c2nc3ccccc3s2)cc1)c1ccco1`, the activity change (PNC), negative = inhibition was inactive: 9.63%. With `O=C(NC1CC1)C1C2C3C4CC5C3C5C4C12` (stereo not drawn) the activity change (PNC), negative = inhibition was inactive: 8.66%. In the case of `CCOc1ccc(N2C(=O)CC(SC(=NC)Nc3ccc4c(c3)OCO4)C2=O)cc1` (stereo not drawn), the activity change (PNC), negative = inhibition is reported as inconclusive: -39%. For `CCC12C(=O)C(CC)(C(c3ccccc3)=C1c1ccccc1)[C@@H]1C(=O)N(c3ccc(C)cc3)C(=O)C12` (stereo partly drawn), the activity change (PNC), negative = inhibition was inconclusive: -58.4%. In the case of `CCOCC(=O)Nc1nc2ccc(S(C)(=O)=O)cc2s1`, the activity change (PNC), negative = inhibition is reported as inactive: -5.71%. For `C/C(=N\NC(=O)Cc1csc(N2CCOCC2)n1)c1ccccc1`, the activity change (PNC), negative = inhibition was inactive: -7.49%. In the case of `CCc1ccccc1NC(=O)c1ccc(-n2c(C)ccc2C)cc1`, the activity change (PNC), negative = inhibition is reported as inconclusive: -31.6%. In the case of `COc1ccc2nc(-c3ccc(N)cc3)[nH]c2c1`, the activity change (PNC), negative = inhibition is reported as inactive: 31.2%. With `CCOC(=O)CCP(=O)(O)C(O)c1ccccc1` (stereo not drawn) the activity change (PNC), negative = inhibition was inconclusive: -30.7%. In the case of `Cc1cccc2nc(CSc3nnnn3-c3ccccc3)cn12`, the activity change (PNC), negative = inhibition is reported as inactive: 7.14%. In the case of `Clc1ccc(CN2CCC(Cc3ccccc3)CC2)cc1`, the activity change (PNC), negative = inhibition is reported as inactive: -16.6%. With `COc1ccc(C(=O)CCc2nc3ccccc3s2)cc1` the activity change (PNC), negative = inhibition was inactive: 16%. For `CCc1noc(C)c1C(=O)N1CC(C)OC(C)C1` (stereo not drawn), the activity change (PNC), negative = inhibition was inconclusive: -48.6%. In the case of `Cc1ccc(Cl)cc1N1CCN(C(=O)C2CCN(c3nnc(-n4cccc4)s3)CC2)CC1`, the activity change (PNC), negative = inhibition is reported as inconclusive: -56%. In the case of `Cc1ccc(NC(=O)C2(N(CC(C)C)C(=O)Cn3nnnc3N)CCCCC2)cc1`, the activity change (PNC), negative = inhibition is reported as inconclusive: -51.2%. For `O=C(CSc1nnc(Cc2csc(Nc3cccc(Cl)c3)n2)o1)N1CCc2ccccc21`, the activity change (PNC), negative = inhibition was inactive: 9.64%. For `CCc1nc(SCC(=O)Nc2sc(C)c(C)c2C(=O)OC)c2ccccc2n1`, the activity change (PNC), negative = inhibition was inconclusive: -35.6%. With `O=c1c2cn[nH]c2[nH]c(=S)n1-c1cccc2ccccc12` the activity change (PNC), negative = inhibition was active: -113%. For `O=Nc1ccc(NOC(=O)c2ccc(Br)cc2)cc1`, the activity change (PNC), negative = inhibition was inactive: 52.8%. For `CC(C)n1c(SCC(=O)Nc2ccccc2N2CCCCC2)nc2c1c(=O)n(C)c(=O)n2C`, the activity change (PNC), negative = inhibition was inactive: -24%. For `O=C(/C=C/c1ccccc1)c1ccc(NC2=NCCCS2)cc1`, the activity change (PNC), negative = inhibition was inconclusive: -38.3%. In the case of `O=C(c1ccco1)N1CCC(n2nnc3ccccc32)CC1`, the activity change (PNC), negative = inhibition is reported as inactive: 34.8%. For `COc1ccc(Nc2nnc(SCC(=O)/C=C3/N(C)c4ccccc4C3(C)C)s2)cc1`, the activity change (PNC), negative = inhibition was inactive: 21.2%. For `COc1ccccc1N/N=C/c1c(CO)cnc(C)c1O`, the activity change (PNC), negative = inhibition was inconclusive: -39.6%. In the case of `COC(=O)c1cc(-c2c(C)oc3cc(OC)ccc3c2=O)c(C)o1`, the activity change (PNC), negative = inhibition is reported as inconclusive: -55.5%. In the case of `O=C(Nc1ccon1)c1cc2c(s1)CCCC2`, the activity change (PNC), negative = inhibition is reported as inactive: -24.1%. In the case of `O=C(CCN1C(=O)COc2ccccc21)NCCN1CCc2ccccc2C1`, the activity change (PNC), negative = inhibition is reported as inconclusive: -31.5%. In the case of `COCCNC(=O)c1ccc(NC(C)=O)cc1`, the activity change (PNC), negative = inhibition is reported as inactive: -21%. With `N#CCSc1nnc(COc2cccc3ccccc23)n1-c1cccc(Cl)c1` the activity change (PNC), negative = inhibition was active: -80.1%.
